Measured values: ChEMBL document CHEMBL3046466, “Synthesis and calcium channel antagonist activity of novel 1,4-dihydropyridine derivatives possessing 4-pyrone moieties” (Med Chem Res, 2012)

By UniProt entry, the sequences of proteins in these tests, tags left out.
UniProt O35505, whole entry: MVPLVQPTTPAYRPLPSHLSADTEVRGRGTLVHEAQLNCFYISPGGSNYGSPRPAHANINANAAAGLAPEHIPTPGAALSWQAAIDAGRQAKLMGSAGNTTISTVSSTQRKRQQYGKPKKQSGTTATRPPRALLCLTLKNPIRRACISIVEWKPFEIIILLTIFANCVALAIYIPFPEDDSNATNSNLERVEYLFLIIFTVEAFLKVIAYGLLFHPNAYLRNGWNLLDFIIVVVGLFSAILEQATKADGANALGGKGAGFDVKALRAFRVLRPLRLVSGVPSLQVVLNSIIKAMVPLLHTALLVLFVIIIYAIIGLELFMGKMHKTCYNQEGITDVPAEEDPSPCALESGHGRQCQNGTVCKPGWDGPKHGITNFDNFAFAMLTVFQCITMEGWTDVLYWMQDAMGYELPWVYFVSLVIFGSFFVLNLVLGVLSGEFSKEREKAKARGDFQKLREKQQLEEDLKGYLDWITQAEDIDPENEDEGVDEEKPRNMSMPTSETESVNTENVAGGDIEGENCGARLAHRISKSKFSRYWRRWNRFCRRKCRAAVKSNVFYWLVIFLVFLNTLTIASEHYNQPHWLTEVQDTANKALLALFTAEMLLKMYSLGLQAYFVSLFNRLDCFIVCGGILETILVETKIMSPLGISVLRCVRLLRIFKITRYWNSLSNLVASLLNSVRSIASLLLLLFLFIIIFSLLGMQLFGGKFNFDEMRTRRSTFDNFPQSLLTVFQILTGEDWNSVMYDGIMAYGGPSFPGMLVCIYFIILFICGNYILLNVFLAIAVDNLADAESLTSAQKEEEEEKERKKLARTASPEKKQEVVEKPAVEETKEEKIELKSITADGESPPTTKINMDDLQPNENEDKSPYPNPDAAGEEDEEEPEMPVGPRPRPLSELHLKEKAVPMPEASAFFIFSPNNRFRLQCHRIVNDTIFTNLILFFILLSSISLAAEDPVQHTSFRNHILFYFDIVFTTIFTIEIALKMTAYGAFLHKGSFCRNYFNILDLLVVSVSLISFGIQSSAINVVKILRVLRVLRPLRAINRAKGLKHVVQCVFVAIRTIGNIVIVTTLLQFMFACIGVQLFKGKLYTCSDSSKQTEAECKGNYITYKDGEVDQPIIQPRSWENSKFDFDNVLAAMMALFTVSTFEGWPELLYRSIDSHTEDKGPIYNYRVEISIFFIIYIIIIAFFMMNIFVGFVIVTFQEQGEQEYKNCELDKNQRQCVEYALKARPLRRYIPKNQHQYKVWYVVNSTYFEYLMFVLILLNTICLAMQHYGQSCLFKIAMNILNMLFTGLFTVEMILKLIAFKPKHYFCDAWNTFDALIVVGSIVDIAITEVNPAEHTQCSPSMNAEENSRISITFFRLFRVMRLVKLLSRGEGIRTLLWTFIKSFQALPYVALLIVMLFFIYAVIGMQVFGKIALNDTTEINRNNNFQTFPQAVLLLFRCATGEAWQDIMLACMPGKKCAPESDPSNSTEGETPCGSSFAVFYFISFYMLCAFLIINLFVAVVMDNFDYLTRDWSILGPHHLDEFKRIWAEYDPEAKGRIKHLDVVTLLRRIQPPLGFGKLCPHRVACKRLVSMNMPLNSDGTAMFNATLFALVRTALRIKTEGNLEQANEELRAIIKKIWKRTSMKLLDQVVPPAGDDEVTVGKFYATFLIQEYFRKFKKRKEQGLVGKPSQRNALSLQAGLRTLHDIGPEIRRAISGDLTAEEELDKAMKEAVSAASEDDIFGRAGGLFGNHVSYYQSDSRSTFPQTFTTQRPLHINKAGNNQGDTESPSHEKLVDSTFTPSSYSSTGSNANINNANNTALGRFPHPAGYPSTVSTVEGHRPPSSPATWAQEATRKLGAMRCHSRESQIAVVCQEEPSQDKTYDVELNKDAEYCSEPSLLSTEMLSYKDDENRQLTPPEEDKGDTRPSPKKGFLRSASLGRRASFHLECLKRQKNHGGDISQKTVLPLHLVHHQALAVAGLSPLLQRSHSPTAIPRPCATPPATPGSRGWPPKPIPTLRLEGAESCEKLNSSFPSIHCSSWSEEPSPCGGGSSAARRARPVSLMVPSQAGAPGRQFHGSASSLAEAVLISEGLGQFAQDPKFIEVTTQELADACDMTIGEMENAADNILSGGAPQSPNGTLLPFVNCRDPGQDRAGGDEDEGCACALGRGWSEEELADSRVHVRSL

Molecular target: Voltage-dependent L-type calcium channel subunit alpha-1C (Cavia porcellus, UniProt O35505)
Assay: Inhibition of Calcium channel in Cavia porcellus albino (guinea pig) ileocecal SMC assessed as inhibition of 80 mM KCl-induced contraction

## COC(=O)C1=C(C)NC(C)=C(C(=O)OC)C1c1ccccc1[N+](=O)[O-] [NIFEDIPINE]
  IC50: 69 nM
